# Results taken from the supplement of paper PMC4604168 (melanoma cell lines).
# The list shows a part of the results. Single values are uncertain, as repeats are few or missing.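 Cells were imaged in 1,536-well plates, and nuclei stained with an antibody against cleaved PARP were counted against all DNA-stained nuclei to give the apoptosis fraction. Screening doses were chosen to leave most cells alive, and resting and induced cleaved-PARP levels differ strongly between cell lines.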
# Key:
# Experiment in all cases: cleaved PARP positive nuclei fraction relative to DMSO control; melanoma cells; higher = more apoptosis
# Details in all cases: library dose: low library concentration; 72 h
# WM115 = test system: WM115
# WM1716 = test system: WM1716
# WM1745 = test system: WM1745
# WM3526 = test system: WM3526
# WM3619 = test system: WM3619
# WM451Lu = test system: WM451Lu
SMILES,cleaved PARP positive nuclei fraction (WM115) [%],cleaved PARP positive nuclei fraction (WM1716) [%],cleaved PARP positive nuclei fraction (WM1745) [%],cleaved PARP positive nuclei fraction (WM3526) [%],cleaved PARP positive nuclei fraction (WM3619) [%],cleaved PARP positive nuclei fraction (WM451Lu) [%]
"Clc1ccc(Nc2nnc(Cc3ccncc3)c3ccccc23)cc1 [vatalanib] + C[C@@H]1CCN(C(=O)CC#N)C[C@@H]1N(C)c1ncnc2[nH]ccc12 [CP690550] (first compound 2 µM, partner dose 1 µM)",89.9,85.8,103,54.3,114,134
"OCc1c[nH]c2ccccc12 [Indole-3-carbinol] + c1cc(-c2cnn3cc(-c4ccc(OCCN5CCCCC5)cc4)cnc23)ccn1 [Dorsomorphin] (first compound 0.8 µM, partner dose 0.4 µM)",66.7,104,93.3,67,94.3,73
"NC(=O)Nc1cc(-c2cccc(F)c2)sc1C(=O)N[C@H]1CCCNC1 + Cc1cc([N+](=O)[O-])ccc1NS(=O)(=O)c1cc(Cl)ccc1Cl [FH535] (first compound 0.02 µM, partner dose 1 µM)",85.1,120,88,40.1,388,126
"CC1(C)NC(=O)N(c2ccc([N+](=O)[O-])c(C(F)(F)F)c2)C1=O [nilutamide] + CN(NC(=O)CC(=O)NN(C)C(=S)c1ccccc1)C(=S)c1ccccc1 [STA4783] (first compound 1 µM, partner dose 0.006 µM)",188,113,154,732,186,41.1
"Cc1ccc(NC(=O)c2cccc(N(C)C)c2)cc1NC(=O)c1ccc(O)cc1 + COc1ccc(-c2ccc3c(N4CCOCC4)nc(N4C[C@@H](C)O[C@@H](C)C4)nc3n2)cc1CO [KU0063794] (first compound 2 µM, partner dose 0.02 µM)",103,236,110,81.8,87.3,185
"COCC[n+]1c2c(n(Cc3cnccn3)c1C)C(=O)c1ccccc1C2=O + O=C(O)c1ccc(-c2c[nH]c3ncc(-c4ccccc4)cc23)cc1C1CCCC1 [GSK650394] (first compound 0.0004 µM, partner dose 0.16 µM)",40.8,128,96.8,424,82.5,198
"O=C(Nc1cccc(Cl)c1)Nc1ncc(CCNc2ncnc3ccsc23)s1 + CN(C)S(=O)(=O)c1ccc2c(c1)/C(=C/c1cc3c([nH]1)CCCC3)C(=O)N2 [SU6656] (first compound 0.0008 µM, partner dose 0.4 µM)",325,37.4,96.2,129,75.6,238
"C[C@@H]1CCN(C(=O)CC#N)C[C@@H]1N(C)c1ncnc2[nH]ccc12 + O=C(Nc1cccc(Cl)c1)Nc1ncc(CCNc2ncnc3ccsc23)s1 [SNS314] (first compound 1 µM, partner dose 0.0008 µM)",154,38.8,108,60.5,89.1,118
"Clc1ccc(Nc2nnc(Cc3ccncc3)c3ccccc23)cc1 [vatalanib] + COc1ccc(COc2ccc(Cc3cnc(N)nc3N)cc2OC)cc1 [GW2580] (first compound 2 µM, partner dose 1 µM)",71.5,30.4,121,143,78.9,72.4
"CC1(C)NC(=O)N(c2ccc([N+](=O)[O-])c(C(F)(F)F)c2)C1=O [nilutamide] + Oc1nc(-c2ccc(C(F)(F)F)cc2)nc2c1CSCC2 [XAV939] (first compound 1 µM, partner dose 2 µM)",74.7,196,118,134,81.9,29.9
"Cc1nc(Nc2ncc(C(=O)Nc3c(C)cccc3Cl)s2)cc(N2CCN(CCO)CC2)n1 [dasatanib] + COc1ccc(COc2ccc(Cc3cnc(N)nc3N)cc2OC)cc1 [GW2580] (first compound 0.004 µM, partner dose 1 µM)",114,169,163,61.8,82.7,98.8
"Cn1nnc2c(C(N)=O)ncn2c1=O [temozolomide] + Oc1cc(-c2nc(-c3ccccc3)[nH]c2-c2ccncc2)ccc1Cl [L779450] (first compound 2 µM, partner dose 0.2 µM)",171,76.9,94.8,231,74.8,40.1
"C#Cc1cccc(Nc2ncnc3cc(OCCOC)c(OCCOC)cc23)c1 [erlotinib] + O=C(O)C(=O)Nc1sc2c(c1C(=O)O)CCNC2 [TCS401] (first compound 0.8 µM, partner dose 1.66667 µM)",233,282,133,78.4,84.3,26.4
"Cc1nc(Nc2ncc(C(=O)Nc3c(C)cccc3Cl)s2)cc(N2CCN(CCO)CC2)n1 [dasatanib] + Cn1nnc2c(C(N)=O)ncn2c1=O [temozolomide] (first compound 0.004 µM, partner dose 2 µM)",188,115,119,41.3,84.9,66.5
"Cn1nnc2c(C(N)=O)ncn2c1=O [temozolomide] + Cn1cncc1[C@@](N)(c1ccc(Cl)cc1)c1ccc2c(c1)c(-c1cccc(Cl)c1)cc(=O)n2C [tipifarnib] (first compound 2 µM, partner dose 0.01 µM)",290,28.4,95.7,59.2,96.1,143
"Nc1cccc2c1CN(C1CCC(=O)NC1=O)C2=O (stereo unspecified) [lenalidomide] + O=S(=O)(c1ccccc1)N(CC(F)(F)F)c1ccc(C(O)(C(F)(F)F)C(F)(F)F)cc1 [T0901317] (first compound 1 µM, partner dose 1.4 µM)",285,148,121,127,96.2,162

# As a working copy, part of the list above.
SMILES,cleaved PARP positive nuclei fraction (WM115) [%],cleaved PARP positive nuclei fraction (WM1716) [%],cleaved PARP positive nuclei fraction (WM1745) [%],cleaved PARP positive nuclei fraction (WM3526) [%],cleaved PARP positive nuclei fraction (WM3619) [%],cleaved PARP positive nuclei fraction (WM451Lu) [%]
"OCc1c[nH]c2ccccc12 [Indole-3-carbinol] + c1cc(-c2cnn3cc(-c4ccc(OCCN5CCCCC5)cc4)cnc23)ccn1 [Dorsomorphin] (first compound 0.8 µM, partner dose 0.4 µM)",66.7,104,93.3,67,94.3,73
"NC(=O)Nc1cc(-c2cccc(F)c2)sc1C(=O)N[C@H]1CCCNC1 + Cc1cc([N+](=O)[O-])ccc1NS(=O)(=O)c1cc(Cl)ccc1Cl [FH535] (first compound 0.02 µM, partner dose 1 µM)",85.1,120,88,40.1,388,126
"CC1(C)NC(=O)N(c2ccc([N+](=O)[O-])c(C(F)(F)F)c2)C1=O [nilutamide] + CN(NC(=O)CC(=O)NN(C)C(=S)c1ccccc1)C(=S)c1ccccc1 [STA4783] (first compound 1 µM, partner dose 0.006 µM)",188,113,154,732,186,41.1
